± gives the standard deviation of the averaged measurements. The list shows a part of the results. Most values come without repeats; read them as rough.
Assays:
MIA PaCa-2 parental = test: parental cell viability relative to untreated parental control; higher = more surviving cells; conditions: treatment time: 9 days
MIA PaCa-2 persister = test: persister cell viability relative to untreated persister control; higher = more surviving persister cells; conditions: treatment time: 9 days; cell state: persister (100 nM gemcitabine + 100 nM Torin1)

Structure (SMILES) | parental cell viability (MIA PaCa-2 parental) | persister cell viability (MIA PaCa-2 persister)
CC(C)n1ncnc1-c1cn2c(n1)-c1ccc(O[C@@H](C)C(N)=O)cc1OCC2 (inhibitor concentration: 10µM) | 80.5% | 77%
Nc1ncccc1-c1nc2ccc(-c3ccccc3)nc2n1-c1ccc(C2(N)CCC2)cc1 [Miransertib] (inhibitor concentration: 1µM) | 97% | 106%
O=C1c2ccccc2-[n+]2ccc3c([nH]c4ccccc43)c21 [Fascaplysin (chloride)] (inhibitor concentration: 100nM) | 99% | 49%
O=[N+]([O-])c1ccc(Nc2nc(N3CCOCC3)nc(N3CCOCC3)n2)cc1 (inhibitor concentration: 20µM) | 105% | 3%
O=C(CCCCCN1C(=O)c2cccc3cccc(c23)C1=O)NO [Scriptaid] (inhibitor concentration: 1µM) | 97% | 25%
CCN1C(=O)N(c2c(F)c(OC)cc(OC)c2F)Cc2cnc3[nH]c(CN4CCOCC4)cc3c21 [Pemigatinib] (inhibitor concentration: 10µM) | 82% | 82%
CC(C)N(CCCNC(=O)Nc1ccc(C(C)(C)C)cc1)C[C@H]1O[C@@H](n2cc(Br)c3c(N)ncnc32)[C@H](O)[C@@H]1O (inhibitor concentration: 10µM) | 96% | 100%
CN1C(=O)[C@@H](NC(=O)c2cc(Cc3ccccc3)on2)COc2ccccc21 (inhibitor concentration: 30µM) | 99.5% | 98%
Cc1cc(O)c(-c2ccc([C@@H](C)CN)cc2)c2c1[nH]c(=O)c1sccc12 (inhibitor concentration: 3nM) | 100% | 96%
COc1ccc2c3n(c(=NC(=O)c4cccnc4)nc2c1OC)CCN3 (inhibitor concentration: 1µM) | 82.5% | 119%
CC[C@@H]1C(=O)N(C)c2cnc(Nc3ccc(C(=O)NC4CCN(C)CC4)cc3OC)nc2N1C1CCCC1 (inhibitor concentration: 30nM) | 1% | 101%
CC(C)c1cc(C(=O)N2Cc3ccc(CN4CCN(C)CC4)cc3C2)c(O)cc1O [Onalespib] (inhibitor concentration: 30nM) | 60% | 100%
COC(=O)c1ccc([C@H]2c3[nH]c4ccccc4c3C[C@H](C(=O)OC)N2C(=O)CCl)cc1 (inhibitor concentration: 100nM) | 80% | 5%
O=C(C/C(=N/O)[N+](=O)[O-])N1CCN(C(c2ccc(Cl)cc2)c2ccc(Cl)cc2)CC1 (inhibitor concentration: 1µM) | 97% | 25%
C[C@@H](Oc1cc(-n2cnc3ccc(CN4CCN(C)CC4)cc32)sc1C(N)=O)c1ccccc1C(F)(F)F (inhibitor concentration: 300nM) | 102% | 145%
CCN(c1cc(-c2ccc(CN3CCOCC3)cc2)cc(C(=O)NCc2c(C)cc(C)[nH]c2=O)c1C)C1CCOCC1 (inhibitor concentration: 30µM) | 94% | 108%
CCn1c(-c2nonc2N)nc2c(C#CC(C)(C)O)ncc(OC[C@H]3CCCNC3)c21 (inhibitor concentration: 1µM) | 100% | 5%
C/C(=C1/C(=O)Nc2ccc(NC(N)=O)cc21)c1ccc[nH]1 (inhibitor concentration: 3µM) | 95% | 95%
Cc1c2c(nn1C)CSCc1cc(n(C)n1)CSc1cc(c3ccccc3c1)OCCCc1c(C(=O)O)n(C)c3c-2c(Cl)ccc13 (inhibitor concentration: 10µM) | 65% | 5%
O=C(O)C(Cc1ccccc1[N+](=O)[O-])=NNc1nc(-c2ccc(Cl)c(Cl)c2)cs1 (mixture of isomers) (inhibitor concentration: 10µM) | 99% | 102%
CC(/C=C/C(=O)NO)=C\[C@@H](C)C(=O)c1ccc(N(C)C)cc1 [Trichostatin A] (inhibitor concentration: 100nM) | 83% | 11.7 ± 12%
O=C(NC1CCOCC1)c1ccc(-c2cc(-c3c[nH]nc3-c3ccccn3)ccn2)cc1 (inhibitor concentration: 10µM) | 109% | 95%
CC(C)(O)CNc1ncc(-c2ccnc(Nc3ccncc3)n2)c(CC2CC2)n1 [VPS34 inhibitor 1] (inhibitor concentration: 3µM) | 99% | 45%

Taken from the entries so far (two entries):
Structure (SMILES) | parental cell viability (MIA PaCa-2 parental) | persister cell viability (MIA PaCa-2 persister)
Nc1ncccc1-c1nc2ccc(-c3ccccc3)nc2n1-c1ccc(C2(N)CCC2)cc1 [Miransertib] (inhibitor concentration: 1µM) | 97% | 106%
O=C1c2ccccc2-[n+]2ccc3c([nH]c4ccccc43)c21 [Fascaplysin (chloride)] (inhibitor concentration: 100nM) | 99% | 49%

From the supplement of paper PMC9671908
